Where two headings read alike, the source gives them in different places.
Experiment: High-resolution metabolomics (LC-MS): prevalence of biomarkers in plasma, ISF and suction blister fluid
[1] = biomarkers uniquely or predominately in ISF, 20 matched samples, ISF
[2] = biomarkers uniquely or predominately in ISF, 20 matched samples, SBF
[3] = biomarkers uniquely or predominately in ISF, 20 matched samples, plasma
[4] = prevalence among 20 samples, plasma from venipuncture
[5] = prevalence among 20 samples, suction blister fluid
[6] = selected clinically relevant biomarkers, 20 matched samples, ISF
[7] = selected clinically relevant biomarkers, 20 matched samples, SBF
[8] = selected clinically relevant biomarkers, 20 matched samples, plasma

Sequences of proteins named here, by UniProt entry; tags and fusion partners are left off. A change or cut given only in a name is not applied to a line headed by its entry.
UniProt P01019: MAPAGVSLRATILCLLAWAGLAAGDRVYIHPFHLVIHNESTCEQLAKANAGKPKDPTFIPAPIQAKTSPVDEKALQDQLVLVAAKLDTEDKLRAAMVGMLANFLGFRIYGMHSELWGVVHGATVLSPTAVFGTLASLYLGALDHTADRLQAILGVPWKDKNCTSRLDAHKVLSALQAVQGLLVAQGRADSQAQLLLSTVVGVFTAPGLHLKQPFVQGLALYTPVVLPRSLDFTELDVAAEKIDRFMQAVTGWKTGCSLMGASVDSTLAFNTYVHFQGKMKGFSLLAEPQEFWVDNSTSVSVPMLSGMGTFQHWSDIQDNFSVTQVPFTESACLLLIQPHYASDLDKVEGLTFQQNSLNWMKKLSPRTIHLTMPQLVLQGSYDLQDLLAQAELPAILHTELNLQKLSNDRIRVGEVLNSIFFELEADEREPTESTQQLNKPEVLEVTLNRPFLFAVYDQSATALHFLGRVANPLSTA

## CC(=O)N[C@H]1C(O)O[C@H](CO)[C@@H](O)[C@@H]1O (stereo partly drawn) [N-Acetyl-D-glucosamine]
[1]
  Prevalence of biomarker, ISF: 100%
[2]
  Prevalence of biomarker, SBF: 90%
[3]
  Prevalence of biomarker, Plasma: 10%

## CNCCc1c[nH]c2ccccc12 [N-Methyltryptamine]
  Prevalence of biomarker, ISF: 70%
  Prevalence of biomarker, Plasma: 5%
  Prevalence of biomarker, SBF: 5%

## CC(=O)NCCCNCCCCNCCCNC(C)=O [N^1,N^12-Diacetylspermine]
[1]
  Prevalence of biomarker, ISF: 95%
[2]
  Prevalence of biomarker, SBF: 15%
[3]
  Prevalence of biomarker, Plasma: 0%

## OC[C@H]1O[C@@H](n2cnc3cncnc32)[C@H](O)[C@@H]1O [Nebularine]
  Prevalence of biomarker, ISF: 100%
  Prevalence of biomarker, Plasma: 0%
  Prevalence of biomarker, SBF: 20%

## NC(=O)c1ccc[n+]([C@@H]2O[C@H](COP(=O)([O-])O)[C@@H](O)[C@H]2O)c1 [Nicotinamide ribotide]
[4]
  Prevalence of biomarker, Plasma: 0%
[5]
  Prevalence of biomarker, SBF: 100%

## O=C(O)C(=O)O [Oxalic acid]
[4]
  Prevalence of biomarker, Plasma: 0%
[5]
  Prevalence of biomarker, SBF: 30%

## CCCCCC/C=C\CCCCCCCC(=O)O [Palmitoleic acid]
[6]
  Prevalence of biomarker, ISF: 100%
[7]
  Prevalence of biomarker, SBF: 55%
[8]
  Prevalence of biomarker, Plasma: 90%

## CCCCCCCCCCCCCCC(=O)O [Pentadecanoic acid]
[1]
  Prevalence of biomarker, ISF: 100%
[2]
  Prevalence of biomarker, SBF: 0%
[3]
  Prevalence of biomarker, Plasma: 10%

## C=C(OP(=O)(O)O)C(=O)O [Phosphoenolpyruvic acid]
[4]
  Prevalence of biomarker, Plasma: 5%
[5]
  Prevalence of biomarker, SBF: 100%

## NCc1[nH]cc(CCC(=O)O)c1CC(=O)O [Porphobilinogen]
[1]
  Prevalence of biomarker, ISF: 95%
[2]
  Prevalence of biomarker, SBF: 20%
[3]
  Prevalence of biomarker, Plasma: 10%

## CCCCCCCC[C@H]1CCC[C@@H]1CCCCCCC(=O)O [Prostanoic acid]
[1]
  Prevalence of biomarker, ISF: 85%
[2]
  Prevalence of biomarker, SBF: 55%
[3]
  Prevalence of biomarker, Plasma: 5%

## CC[C@@H](O)/C=C/C=C\C/C=C\C/C=C\C=C\[C@@H](O)CCCC(=O)O [Respolvin E2]
[6]
  Prevalence of biomarker, ISF: 100%
[7]
  Prevalence of biomarker, SBF: 75%
[8]
  Prevalence of biomarker, Plasma: 100%

## C[C@H](O)[C@H](O)[C@@H](O)[C@@H](O)C=O [Rhamnose]
[4]
  Prevalence of biomarker, Plasma: 10%
[5]
  Prevalence of biomarker, SBF: 25%

## Nc1ncnc2c1ncn2[C@@H]1O[C@H](CSCC[C@H](N)C(=O)O)[C@@H](O)[C@H]1O [S-Adenosylhomocysteine]
Metabolites unique to SBF, 20 samples, ISF
  Prevalence of biomarker, ISF: 0%
Metabolites unique to SBF, 20 samples, SBF
  Prevalence of biomarker, SBF: 100%
Metabolites unique to SBF, 20 samples, plasma
  Prevalence of biomarker, Plasma: 20%

## CCCCCCCCCCCCC/C=C/[C@@H](O)[C@@H](N)CO [Sphingosine]
[1]
  Prevalence of biomarker, ISF: 100%
[2]
  Prevalence of biomarker, SBF: 50%
[3]
  Prevalence of biomarker, Plasma: 10%
[4]
  Prevalence of biomarker, Plasma: 10%
[5]
  Prevalence of biomarker, SBF: 50%
[6]
  Prevalence of biomarker, ISF: 100%
[7]
  Prevalence of biomarker, SBF: 50%
[8]
  Prevalence of biomarker, Plasma: 10%

## OC[C@H]1O[C@H](OC[C@H]2O[C@H](OC[C@H]3O[C@H](O[C@]4(CO)O[C@H](CO)[C@@H](O)[C@@H]4O)[C@H](O)[C@@H](O)[C@@H]3O)[C@H](O)[C@@H](O)[C@H]2O)[C@H](O)[C@@H](O)[C@H]1O [Stachyose]
[4]
  Prevalence of biomarker, Plasma: 10%
[5]
  Prevalence of biomarker, SBF: 60%

## CCCCCCCCCCCCCCCCCC(=O)O [Stearic acid]
[6]
  Prevalence of biomarker, ISF: 100%
[7]
  Prevalence of biomarker, SBF: 15%
[8]
  Prevalence of biomarker, Plasma: 75%

## O=C(O)CCC(=O)N[C@@H](CCO)C(=O)O [Succinylhomoserine]
[4]
  Prevalence of biomarker, Plasma: 0%
[5]
  Prevalence of biomarker, SBF: 75%

## C[C@H](CCC(=O)NCCS(=O)(=O)O)[C@H]1CC[C@H]2[C@@H]3CC[C@@H]4C[C@H](O)CC[C@]4(C)[C@H]3C[C@H](O)[C@]12C [Taurodeoxycholic acid]
[6]
  Prevalence of biomarker, ISF: 50%
[7]
  Prevalence of biomarker, SBF: 100%
[8]
  Prevalence of biomarker, Plasma: 100%

## Nc1nc2c(c(=O)[nH]1)NC(CNc1ccc(C(=O)N[C@@H](CCC(=O)O)C(=O)O)cc1)CN2 (some centres unmarked) [Tetrahydrofolic acid]
[6]
  Prevalence of biomarker, ISF: 60%
[7]
  Prevalence of biomarker, SBF: 30%
[8]
  Prevalence of biomarker, Plasma: 40%

## CCC[CH2][Sn]([Cl])([CH2]CCC)[CH2]CCC [Tributyltin chloride]
  Prevalence of biomarker, ISF: 100%
  Prevalence of biomarker, Plasma: 10%
  Prevalence of biomarker, SBF: 10%

## NC(N)=O [Urea]
[6]
  Prevalence of biomarker, ISF: 100%
[7]
  Prevalence of biomarker, SBF: 100%
[8]
  Prevalence of biomarker, Plasma: 100%

## O=c1[nH]c(=O)c2[nH]c(=O)[nH]c2[nH]1 [Uric acid]
[6]
  Prevalence of biomarker, ISF: 100%
[7]
  Prevalence of biomarker, SBF: 100%
[8]
  Prevalence of biomarker, Plasma: 100%

## O=c1ccn([C@@H]2O[C@H](CO)[C@@H](O)[C@H]2O)c(=O)[nH]1 [Uridine]
[6]
  Prevalence of biomarker, ISF: 100%
[7]
  Prevalence of biomarker, SBF: 100%
[8]
  Prevalence of biomarker, Plasma: 100%

## O=C(O)/C=C/c1c[nH]cn1 [Urocanic acid]
  Prevalence of biomarker, ISF: 100%
  Prevalence of biomarker, Plasma: 0%
  Prevalence of biomarker, SBF: 100%

## O=c1[nH]c(=O)c2[nH]cnc2[nH]1 [Xanthine]
[6]
  Prevalence of biomarker, ISF: 90%
[7]
  Prevalence of biomarker, SBF: 100%
[8]
  Prevalence of biomarker, Plasma: 25%

## Angiotensin (5-8) (IHPF; Angiotensin-1; UniProt P01019 29-32, looked up, fragment)
[1]
  Prevalence of biomarker, ISF: 100%
[2]
  Prevalence of biomarker, SBF: 5%
[3]
  Prevalence of biomarker, Plasma: 5%

## Glycogen
[1]
  Prevalence of biomarker, ISF: 100%
[2]
  Prevalence of biomarker, SBF: 60%
[3]
  Prevalence of biomarker, Plasma: 10%

## Tocopherol
Prevalence among 20 samples, ISF from MN treatment
  Prevalence of biomarker, ISF: 100%
[4]
  Prevalence of biomarker, Plasma: 5%
[5]
  Prevalence of biomarker, SBF: 0%

Reference: patent publication US12433510B2, “Methods and systems for improved collection of interstitial fluid” (Georgia Tech Research Corporation, priority 2017, dated 2025)
